Sequences of proteins named here, by UniProt entry; tags and fusion partners are left off.
UniProt P08183, whole entry: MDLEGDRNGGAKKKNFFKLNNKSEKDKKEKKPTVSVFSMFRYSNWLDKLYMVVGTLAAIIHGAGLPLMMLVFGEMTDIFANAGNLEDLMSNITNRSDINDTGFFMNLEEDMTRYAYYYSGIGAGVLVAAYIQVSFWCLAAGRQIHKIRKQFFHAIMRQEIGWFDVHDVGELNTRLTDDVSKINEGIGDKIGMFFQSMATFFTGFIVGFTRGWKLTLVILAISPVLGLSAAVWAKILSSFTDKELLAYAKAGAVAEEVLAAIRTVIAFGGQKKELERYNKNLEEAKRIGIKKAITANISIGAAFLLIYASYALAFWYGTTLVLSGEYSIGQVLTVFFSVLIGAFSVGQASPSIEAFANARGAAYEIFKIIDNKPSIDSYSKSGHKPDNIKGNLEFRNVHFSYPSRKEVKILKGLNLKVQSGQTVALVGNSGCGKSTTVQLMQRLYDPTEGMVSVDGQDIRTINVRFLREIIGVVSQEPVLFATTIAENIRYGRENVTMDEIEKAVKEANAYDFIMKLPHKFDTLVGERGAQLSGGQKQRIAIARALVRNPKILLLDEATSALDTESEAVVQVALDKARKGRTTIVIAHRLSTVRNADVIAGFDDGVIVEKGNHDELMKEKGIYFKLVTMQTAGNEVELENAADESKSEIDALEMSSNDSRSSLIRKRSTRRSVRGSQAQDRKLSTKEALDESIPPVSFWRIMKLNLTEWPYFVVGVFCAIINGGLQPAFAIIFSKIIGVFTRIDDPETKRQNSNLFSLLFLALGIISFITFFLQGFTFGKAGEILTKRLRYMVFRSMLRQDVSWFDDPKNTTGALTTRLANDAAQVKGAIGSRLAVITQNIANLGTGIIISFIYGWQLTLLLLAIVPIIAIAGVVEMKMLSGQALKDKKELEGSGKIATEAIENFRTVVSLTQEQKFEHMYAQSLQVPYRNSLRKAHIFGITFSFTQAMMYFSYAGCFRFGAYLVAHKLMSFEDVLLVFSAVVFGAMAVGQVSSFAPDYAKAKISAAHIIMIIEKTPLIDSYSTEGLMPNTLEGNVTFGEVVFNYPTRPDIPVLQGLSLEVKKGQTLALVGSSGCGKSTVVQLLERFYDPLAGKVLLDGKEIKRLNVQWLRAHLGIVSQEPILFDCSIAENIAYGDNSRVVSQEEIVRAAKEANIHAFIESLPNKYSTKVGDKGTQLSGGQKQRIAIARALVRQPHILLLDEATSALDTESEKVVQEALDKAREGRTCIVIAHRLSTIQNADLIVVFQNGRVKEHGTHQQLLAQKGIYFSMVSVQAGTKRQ

In ChEMBL document CHEMBL2073809, “Interrelationship between substrates and inhibitors of human CYP3A and P-glycoprotein” (Pharm Res, 1999):

Molecular target: ABCB1 (P-glycoprotein) (Homo sapiens, UniProt P08183)
Assay: in vitro
Conditions: Caco-2

Work on `COC(=O)C1=C(C)NC(C)=C(C(=O)OC)C1c1ccccc1[N+](=O)[O-]` [NIFEDIPINE] yielded an inhibition at 100 µM of 56%.
